Measurements reported in the supplement of paper PMC7877785.
± gives the uncertainty stated by the source. Many of these values have a large error.

Test: self-splicing fitness, log relative to wild type (ln ratio); higher = more splicing; Tetrahymena group I intron in knt gene, E. coli kanamycin selection, DiMSum; sequences stand for … in CUCUCU…GGAGGGAAAAGUUAUCAGGCAUGCACCUGGUAGCUAGUCUUUAAACCAAUAGAUUGCAUCGGUUUAAAAGGCAAGACCGUCAAAUUGCGGGAAAGGGGUCAACAGCCGUUCAGUACCAAGUCUCAGGGGAAACUUUGAGAUGGCCUUGCAAAGGGUAUGGUAAUAAGCUGACGGACAUGGUCCUAACCACGCAGCCAAGUCCUAAGUCAACAGAUCUUCUGUUGAUAUGGAUGCAGUUCACAGACUAAAUGUCGGUCGGGGAAGAUGUAUUCUUCUCAUAAGAUAUAGUCGGACCUCUCCUUAAUGGGAGCUAGCGGAUGAAGUGAUGCAACACUGGAGCCGCUGGGAACUAAUUUGUAUGCGAAAGUAUAUUGAUUAGUUUUGGAGUACUCGUGGUCG
In short: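 A randomised library covering all eight P1ex-region intron nucleotides was built with the intron in the knt kanamycin-resistance gene on pET-22b(+) and held in E. coli BL21(DE3). Cells were grown overnight at 37°C or 30°C on LB agar, with or without 25 μg/mL kanamycin, plus 100 μg/mL carbenicillin, 50 μM IPTG and 0.2% rhamnose, and pooled colonies were amplicon-sequenced on an Illumina HiSeq 2500. DiMSum fitness is the error-weighted combination of wild-type-normalised replicate fold changes, kanamycin versus none.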

Sequence | self-splicing fitness (ln) (37 °C) | self-splicing fitness (ln) (30 °C)
CUGUAGCAAUAUUACGGCAA | -3.76 ± 0.59 | –
CCGGAGCAAUAUUACGAAUA | – | -3.1 ± 0.61
GUACAGCAAUAUUACGUACC | – | -3.16 ± 0.77
GAGGAGCAAUAUUACGAGAU | -3.52 ± 0.6 | –
GGACAGCAAUAUUACGCUGC | -2.48 ± 0.76 | –
AAUAAGCAAUAUUACGCCCC | -0.311 ± 0.24 | 0.198 ± 0.2
UUGCAGCAAUAUUACGCGAC | -2.48 ± 1.1 | -0.631 ± 1.2
UCGGAGCAAUAUUACGCCCG | -0.927 ± 1.2 | -1.39 ± 0.63
UGUAAGCAAUAUUACGUUGC | -3.08 ± 0.53 | –
CAUGAGCAAUAUUACGAGCU | -2.7 ± 0.61 | –
CCCUAGCAAUAUUACGUAAA | – | -4.48 ± 0.59
ACCCAGCAAUAUUACGUUUA | -1.01 ± 0.072 | -1.57 ± 0.066
UCUAAGCAAUAUUACGUAGA | -0.771 ± 0.15 | -1.2 ± 0.098
UAAUAGCAAUAUUACGCCAA | – | -2.77 ± 0.55
CGGCAGCAAUAUUACGGCGC | -2.53 ± 0.24 | -2.64 ± 0.27
CUAUAGCAAUAUUACGGACU | – | -3.05 ± 0.52
CGGGAGCAAUAUUACGUCAU | -3.01 ± 0.61 | –
CUCGAGCAAUAUUACGCUAC | -1.6 ± 0.83 | –
GGGUAGCAAUAUUACGAUAG | -2.87 ± 0.54 | –
GUGUAGCAAUAUUACGAGGC | -1.78 ± 0.69 | -2.53 ± 0.77
AAGGAGCAAUAUUACGAGAC | -3.39 ± 0.73 | –
CUUCAGCAAUAUUACGAGCA | – | -4.17 ± 0.6
CUGAAGCAAUAUUACGCCAA | -2.54 ± 0.62 | –
UGCGAGCAAUAUUACGUGAA | – | -4.37 ± 0.59
GGAGAGCAAUAUUACGCGUC | -2.42 ± 0.77 | -2.52 ± 0.52

Single records (already shown):
UAAUAGCAAUAUUACGCCAA is entered as self-splicing fitness (ln) (30 °C): -2.77 ± 0.55
AAGGAGCAAUAUUACGAGAC is entered as self-splicing fitness (ln) (37 °C): -3.39 ± 0.73

Next results follow:

Sequence | self-splicing fitness (ln) (37 °C) | self-splicing fitness (ln) (30 °C)
UCCAAGCAAUAUUACGCCCG | -0.954 ± 0.52 | –
CCUAAGCAAUAUUACGCCUU | -2.79 ± 0.26 | -3.22 ± 0.21
ACUGAGCAAUAUUACGAUCC | -0.234 ± 1 | -0.827 ± 0.63
UCCGAGCAAUAUUACGCGAC | -1.58 ± 0.4 | -2.63 ± 0.41
UCCCAGCAAUAUUACGGAGC | -1.44 ± 0.18 | -1.44 ± 0.098
GGUAAGCAAUAUUACGUACC | 0.0117 ± 1.2 | –
UACGAGCAAUAUUACGCUGC | – | -3.07 ± 1.1
AACGAGCAAUAUUACGUCGA | – | -4.98 ± 1
CGUGAGCAAUAUUACGGUUC | -4.62 ± 1 | -3.34 ± 0.74
UAUUAGCAAUAUUACGGAGC | -2.98 ± 1.1 | –
GGAGAGCAAUAUUACGGUCC | – | -3.34 ± 0.78
UGGAAGCAAUAUUACGGGUC | – | -4.55 ± 0.51
UGGUAGCAAUAUUACGCAGC | – | -3.27 ± 0.76
AUCGAGCAAUAUUACGAAUG | – | -4.36 ± 1
UGACAGCAAUAUUACGGAAA | -1.75 ± 0.14 | -2.03 ± 0.12
CUCUAGCAAUAUUACGGUUA | – | -3.73 ± 0.75
CCAUAGCAAUAUUACGUCCC | – | -3.06 ± 1.1
CAUGAGCAAUAUUACGAUCG | -0.399 ± 0.14 | -0.0708 ± 0.12
UUCGAGCAAUAUUACGCUGC | -1.73 ± 0.52 | –
UCGGAGCAAUAUUACGCAAC | -3.18 ± 1 | -3.76 ± 0.62
UCUAAGCAAUAUUACGCCGG | -0.186 ± 0.15 | -1.15 ± 0.13
GCGUAGCAAUAUUACGUCCC | -0.216 ± 0.68 | –
GAACAGCAAUAUUACGCCAC | -3.26 ± 0.6 | –
GAUGAGCAAUAUUACGCAGG | – | -3.18 ± 0.52
